This passage reports binding results from PMC4636137.

Chains of the proteins cited; added tags and fusions are not shown.
UniProt P28905: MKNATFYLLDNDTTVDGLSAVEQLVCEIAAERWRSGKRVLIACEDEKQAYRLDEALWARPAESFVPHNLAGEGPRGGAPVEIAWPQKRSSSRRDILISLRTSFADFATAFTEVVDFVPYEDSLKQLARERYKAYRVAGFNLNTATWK

In test [1] the target is T1, biotin-binding domain (BBD)-YoaA fusion protein (E. coli) (UniProt P76257).
T1 sequence: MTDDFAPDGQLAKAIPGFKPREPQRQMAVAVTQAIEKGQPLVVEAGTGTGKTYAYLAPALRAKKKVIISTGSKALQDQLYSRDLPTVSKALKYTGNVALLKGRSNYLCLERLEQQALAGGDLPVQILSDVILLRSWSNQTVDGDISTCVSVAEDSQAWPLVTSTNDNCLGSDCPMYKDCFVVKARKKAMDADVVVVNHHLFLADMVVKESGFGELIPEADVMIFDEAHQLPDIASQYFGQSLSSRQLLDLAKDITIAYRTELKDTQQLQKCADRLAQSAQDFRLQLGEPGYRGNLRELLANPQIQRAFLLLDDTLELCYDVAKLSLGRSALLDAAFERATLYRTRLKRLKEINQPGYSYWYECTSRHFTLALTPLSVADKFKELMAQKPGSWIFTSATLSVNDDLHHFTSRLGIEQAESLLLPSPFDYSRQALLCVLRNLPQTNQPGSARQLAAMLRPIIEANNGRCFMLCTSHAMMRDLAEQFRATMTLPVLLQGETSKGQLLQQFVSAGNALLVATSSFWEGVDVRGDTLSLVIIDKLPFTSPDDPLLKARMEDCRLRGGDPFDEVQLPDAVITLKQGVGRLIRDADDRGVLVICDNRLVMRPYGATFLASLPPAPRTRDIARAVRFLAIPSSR
The test can be described thus: pull-down; reciprocal: streptavidin agarose resin + YoaA-BBD crude lysate (bait) + His6-HolC crude lysate (prey), washed 5 times and eluted; Western blot with penta-His antibody.

Test [2] concerns the target His6-tagged χ (HolC) protein (E. coli) (UniProt P28905). The test can be described thus: pull-down; His6-HolC from crude extract bound to Ni-NTA agarose (1 h, 20°) and washed five times (50 mM sodium phosphate pH 8.0, 500 mM NaCl, 20 mM imidazole); BBD-YoaA crude lysate added, incubated and washed; Western blot with NeutrAvidin-HRP; only the target purified.
In test [3] the target is HolC (yeast two-hybrid fusion) (E. coli) (UniProt P28905). The test can be described thus: two-hybrid; ProQuest yeast two-hybrid, strain MaV203; ORFs in pDEST32 (Gal4 DNA binding domain) and pDEST22 (Gal4 activation domain); growth on SC -Leu -Trp -His + 25 mM 3-AT.

These are yes or no findings as the source states them, for the method shown. For part of these data: In cells and extracts the contact can be indirect. Some results given as binding are weak or reduced against the parent protein; the word gives no strength. Sequences can lack the tags named with a protein.

In the case of “His6-tagged χ (HolC) protein (from UniProt P28905 1-147)”, the binding entry in test [1] is reported as “binds”.

B1: biotin-binding domain (BBD)-YoaA fusion protein (protein, UniProt P76257 1-636)
chain: T1 sequence
Consider B1, for which the binding result in test [2] is “binds”.

B2: YoaA (yeast two-hybrid fusion) (protein, UniProt P76257 1-636)
chain: T1 sequence
Consider B2, for which, in test [3], the binding entry was “binds”.
